In the M2OR odorant receptor database:
Residue numbers refer to the chain shown, from its start. Only a part is listed here, and it is no random draw. The calls were merged from several studies; some rest on single wells. The list shows a part of the results. The list shows a part of the results.

Chains of the proteins cited; added tags and fusions are not shown. Where a name states a change or a piece, a line headed by the entry shows the natural chain unless it says otherwise. A line that says so, or that is headed by a name, gives the form on record, which may keep a tag or linker.
UniProt Q8NGP8: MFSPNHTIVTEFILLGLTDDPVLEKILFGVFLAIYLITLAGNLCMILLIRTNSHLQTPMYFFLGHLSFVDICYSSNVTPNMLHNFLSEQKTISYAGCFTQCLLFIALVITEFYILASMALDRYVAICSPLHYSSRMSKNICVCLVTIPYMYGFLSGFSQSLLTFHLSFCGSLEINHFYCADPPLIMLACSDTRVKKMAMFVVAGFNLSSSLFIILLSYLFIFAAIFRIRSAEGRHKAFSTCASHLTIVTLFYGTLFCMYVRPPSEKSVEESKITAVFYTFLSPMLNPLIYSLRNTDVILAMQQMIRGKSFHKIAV
OR5H2, as listed by the source: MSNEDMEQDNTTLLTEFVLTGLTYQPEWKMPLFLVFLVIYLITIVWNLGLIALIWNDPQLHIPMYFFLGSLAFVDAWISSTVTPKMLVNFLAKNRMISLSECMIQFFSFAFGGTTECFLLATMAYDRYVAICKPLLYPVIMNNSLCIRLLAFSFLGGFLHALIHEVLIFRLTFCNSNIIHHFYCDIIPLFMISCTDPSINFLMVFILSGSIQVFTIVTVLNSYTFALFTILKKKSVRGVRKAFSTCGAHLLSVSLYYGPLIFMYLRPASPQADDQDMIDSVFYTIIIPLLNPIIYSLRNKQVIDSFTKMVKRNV

Tests used:
Conditions in all cases: stereoisomer not certain
[1] = target: OR5H15 (Homo sapiens) (UniProt A6NDH6)
Summary of the method: (§1)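 Each entry records the cell line, G-protein, co-transfected protein and tags used. Methods varied with the source, often transient luciferase assays in mammalian cell lines. A receptor–molecule pair is called responsive (active) if the original authors judged its signal statistically different from baseline and non-responsive (inactive) otherwise.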

[2] = test system: T1, OR5H1
T1 sequence (whole entry): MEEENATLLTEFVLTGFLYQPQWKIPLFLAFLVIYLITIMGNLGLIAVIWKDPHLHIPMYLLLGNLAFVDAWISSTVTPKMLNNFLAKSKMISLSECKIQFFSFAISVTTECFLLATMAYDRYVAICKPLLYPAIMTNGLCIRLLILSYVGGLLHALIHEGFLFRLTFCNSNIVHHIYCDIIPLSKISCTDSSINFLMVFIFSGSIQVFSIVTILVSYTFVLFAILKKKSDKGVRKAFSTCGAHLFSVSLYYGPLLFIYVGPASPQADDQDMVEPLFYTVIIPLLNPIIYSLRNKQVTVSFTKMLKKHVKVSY
Summary of the method: as §1

[3] = test system: OR5H2
Summary of the method: as §1

[4] = test system: T2, OR5H2; remark: listed apart in the source
T2 sequence (whole entry): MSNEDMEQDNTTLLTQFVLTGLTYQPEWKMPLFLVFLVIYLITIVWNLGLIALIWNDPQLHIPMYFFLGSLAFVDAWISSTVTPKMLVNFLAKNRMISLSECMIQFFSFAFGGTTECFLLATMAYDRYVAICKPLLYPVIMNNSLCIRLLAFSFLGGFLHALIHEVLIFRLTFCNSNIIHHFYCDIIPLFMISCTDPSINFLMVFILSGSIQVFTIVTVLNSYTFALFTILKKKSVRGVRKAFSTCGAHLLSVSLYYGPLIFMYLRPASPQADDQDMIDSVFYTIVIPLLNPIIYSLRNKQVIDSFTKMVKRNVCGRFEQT
Summary of the method: as §1

[5] = test system: T3, OR5H2; remark: listed apart in the source
T3 sequence (whole entry): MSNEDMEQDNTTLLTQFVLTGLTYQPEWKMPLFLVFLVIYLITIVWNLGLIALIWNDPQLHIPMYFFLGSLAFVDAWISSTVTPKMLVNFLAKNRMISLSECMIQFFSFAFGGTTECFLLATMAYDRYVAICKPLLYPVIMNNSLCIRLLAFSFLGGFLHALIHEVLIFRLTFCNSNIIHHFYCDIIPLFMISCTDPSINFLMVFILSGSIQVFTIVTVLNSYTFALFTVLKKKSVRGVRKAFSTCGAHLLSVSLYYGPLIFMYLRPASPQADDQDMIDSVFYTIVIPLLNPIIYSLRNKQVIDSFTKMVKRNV
Summary of the method: as §1

[6] = target: OR5H6 (Homo sapiens) (UniProt Q8NGV6)
Summary of the method: as §1

[7] = test system: T4, OR5H6
T4 sequence (whole entry): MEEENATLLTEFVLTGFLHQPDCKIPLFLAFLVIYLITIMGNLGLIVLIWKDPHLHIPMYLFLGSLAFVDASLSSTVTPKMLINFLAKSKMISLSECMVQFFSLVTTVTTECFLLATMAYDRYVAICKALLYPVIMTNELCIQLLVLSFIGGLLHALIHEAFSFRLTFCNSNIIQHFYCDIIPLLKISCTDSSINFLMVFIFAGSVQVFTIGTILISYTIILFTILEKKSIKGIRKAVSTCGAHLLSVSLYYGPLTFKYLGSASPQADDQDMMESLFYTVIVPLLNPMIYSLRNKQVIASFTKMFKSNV
Summary of the method: as §1

[8] = test system: T5, OR5H6; remark: listed apart in the source
T5 sequence (whole entry): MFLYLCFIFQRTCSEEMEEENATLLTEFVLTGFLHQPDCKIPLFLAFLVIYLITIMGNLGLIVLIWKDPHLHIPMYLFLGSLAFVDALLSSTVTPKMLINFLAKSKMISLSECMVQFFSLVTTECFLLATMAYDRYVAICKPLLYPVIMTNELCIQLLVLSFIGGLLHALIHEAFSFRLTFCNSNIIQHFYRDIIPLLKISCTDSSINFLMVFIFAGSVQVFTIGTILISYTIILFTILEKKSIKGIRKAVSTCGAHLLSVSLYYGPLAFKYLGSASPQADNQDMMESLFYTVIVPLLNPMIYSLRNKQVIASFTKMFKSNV
Summary of the method: as §1

[9] = target: T6, OR5J2 (Homo sapiens) (UniProt Q8NH18)
T6 sequence (whole entry): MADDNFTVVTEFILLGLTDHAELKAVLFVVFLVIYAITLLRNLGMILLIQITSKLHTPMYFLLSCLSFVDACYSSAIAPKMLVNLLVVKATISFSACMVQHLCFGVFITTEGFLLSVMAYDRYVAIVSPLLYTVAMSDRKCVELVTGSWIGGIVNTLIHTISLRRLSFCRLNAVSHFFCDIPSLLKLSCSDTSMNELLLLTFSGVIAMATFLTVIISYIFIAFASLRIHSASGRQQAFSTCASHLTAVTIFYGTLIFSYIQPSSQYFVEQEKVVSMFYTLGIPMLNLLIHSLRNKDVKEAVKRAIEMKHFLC
Summary of the method: as §1

[10] = target: T7, OR5K1 (Homo sapiens) (UniProt Q8NHB7)
T7 sequence (whole entry): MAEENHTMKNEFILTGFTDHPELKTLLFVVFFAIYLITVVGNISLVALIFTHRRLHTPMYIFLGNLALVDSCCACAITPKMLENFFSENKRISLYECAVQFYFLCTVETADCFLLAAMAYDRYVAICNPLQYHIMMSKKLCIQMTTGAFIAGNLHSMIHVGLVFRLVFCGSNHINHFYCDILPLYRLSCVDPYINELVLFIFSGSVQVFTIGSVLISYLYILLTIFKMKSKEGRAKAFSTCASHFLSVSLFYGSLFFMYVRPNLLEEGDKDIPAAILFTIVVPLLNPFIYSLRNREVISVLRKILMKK
Summary of the method: as §1

[11] = target: T8, OR5K2 (Homo sapiens) (UniProt Q8NHB8)
T8 sequence (whole entry): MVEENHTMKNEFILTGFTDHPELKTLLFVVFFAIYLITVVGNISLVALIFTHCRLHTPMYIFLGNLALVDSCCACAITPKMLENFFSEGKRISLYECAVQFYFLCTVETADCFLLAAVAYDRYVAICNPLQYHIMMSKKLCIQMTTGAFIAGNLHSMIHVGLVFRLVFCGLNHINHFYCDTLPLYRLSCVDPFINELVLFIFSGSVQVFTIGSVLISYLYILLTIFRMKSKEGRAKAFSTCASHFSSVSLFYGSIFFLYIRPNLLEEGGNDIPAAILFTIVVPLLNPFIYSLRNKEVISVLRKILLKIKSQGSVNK
Summary of the method: as §1

[12] = test system: T9, OR5K3
T9 sequence (whole entry): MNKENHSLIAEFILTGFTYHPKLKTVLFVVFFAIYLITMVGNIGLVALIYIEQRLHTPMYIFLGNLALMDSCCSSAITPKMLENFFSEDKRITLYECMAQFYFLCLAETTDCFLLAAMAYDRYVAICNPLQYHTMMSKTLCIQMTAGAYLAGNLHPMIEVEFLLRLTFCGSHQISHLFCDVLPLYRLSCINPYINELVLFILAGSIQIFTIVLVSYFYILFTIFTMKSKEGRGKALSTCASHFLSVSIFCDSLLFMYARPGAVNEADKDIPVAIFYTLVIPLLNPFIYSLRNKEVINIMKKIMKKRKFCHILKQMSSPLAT
Summary of the method: as §1

[13] = test system: T10, OR5K4
T10 sequence (whole entry): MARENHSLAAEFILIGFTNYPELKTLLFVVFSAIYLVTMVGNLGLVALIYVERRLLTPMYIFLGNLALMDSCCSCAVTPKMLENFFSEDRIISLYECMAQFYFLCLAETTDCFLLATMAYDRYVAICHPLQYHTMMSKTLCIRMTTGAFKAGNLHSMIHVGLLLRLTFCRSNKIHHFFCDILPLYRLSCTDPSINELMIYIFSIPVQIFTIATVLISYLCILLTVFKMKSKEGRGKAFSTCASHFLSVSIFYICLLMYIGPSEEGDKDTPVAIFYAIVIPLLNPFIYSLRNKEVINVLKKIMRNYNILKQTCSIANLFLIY
Summary of the method: as §1

[14] = test system: T11, OR5L1
T11 sequence (whole entry): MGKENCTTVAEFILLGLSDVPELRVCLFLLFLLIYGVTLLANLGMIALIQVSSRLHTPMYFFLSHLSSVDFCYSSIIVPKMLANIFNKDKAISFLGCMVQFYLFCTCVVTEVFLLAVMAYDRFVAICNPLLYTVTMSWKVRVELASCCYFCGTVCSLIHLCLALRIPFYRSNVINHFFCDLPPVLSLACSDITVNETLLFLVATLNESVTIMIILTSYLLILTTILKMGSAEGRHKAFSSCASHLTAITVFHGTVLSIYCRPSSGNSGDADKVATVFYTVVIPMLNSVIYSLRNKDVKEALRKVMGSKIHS
Summary of the method: as §1

[15] = target: OR5L2 (Homo sapiens) (UniProt Q8NGL0)
Summary of the method: as §1

[16] = target: OR5M1 (Homo sapiens) (UniProt Q8NGP8)
Summary of the method: as §1

[17] = target: T12, OR5I1 (Homo sapiens) (UniProt Q13606)
T12 sequence (whole entry): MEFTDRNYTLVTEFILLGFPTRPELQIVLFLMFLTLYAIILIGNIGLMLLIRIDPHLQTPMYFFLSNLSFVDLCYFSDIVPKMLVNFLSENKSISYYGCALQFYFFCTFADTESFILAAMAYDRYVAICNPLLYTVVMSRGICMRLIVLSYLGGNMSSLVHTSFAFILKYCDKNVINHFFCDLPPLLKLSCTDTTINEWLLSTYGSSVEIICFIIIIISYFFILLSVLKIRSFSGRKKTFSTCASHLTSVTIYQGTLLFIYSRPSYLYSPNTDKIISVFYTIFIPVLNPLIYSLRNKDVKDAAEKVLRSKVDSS
Summary of the method: as §1

[18] = target: T13, OR5L1 (Homo sapiens) (UniProt Q8NGL2)
T13 sequence (whole entry): T11 sequence (whole entry) with S240T
Summary of the method: as §1

SMILES | odorant receptor agonist call [1] | odorant receptor agonist call [2] | odorant receptor agonist call [3] | odorant receptor agonist call [4] | odorant receptor agonist call [5] | odorant receptor agonist call [6] | odorant receptor agonist call [7] | odorant receptor agonist call [8] | odorant receptor agonist call [9] | odorant receptor agonist call [10] | odorant receptor agonist call [11] | odorant receptor agonist call [12] | odorant receptor agonist call [13] | odorant receptor agonist call [14] | odorant receptor agonist call [15] | odorant receptor agonist call [16] | odorant receptor agonist call [17] | odorant receptor agonist call [18]
CC12C=CCC1C1CCC3CC(=O)CCC3(C)C1CC2 (centres undefined) | inactive | inactive | inactive | inactive | inactive | inactive | inactive | inactive | inactive | inactive | inactive | inactive | inactive | inactive | inactive | inactive |  | 
CCCCCCCCCCC=O |  | inactive |  | inactive | inactive |  | inactive | inactive | active | inactive | inactive | inactive | inactive | inactive |  |  | inactive | inactive
CCCCCC(=O)O |  | inactive |  | inactive | inactive |  | inactive | inactive | inactive | inactive | inactive | inactive | inactive | inactive |  |  | inactive | inactive
CC(=O)OC(C)(C)C1CC=C(C)CC1 (centres undefined) |  | inactive |  | inactive | inactive |  | inactive | inactive | inactive | inactive | inactive | inactive | inactive | inactive |  |  | inactive | inactive
CCCCCCCCCC=O |  | inactive |  | inactive | inactive |  | inactive | inactive | inactive | inactive | inactive | inactive | inactive | inactive |  |  | inactive | inactive
CCCCCCCOC(C)=O |  | inactive |  | inactive | inactive |  | inactive | inactive | inactive | inactive | inactive | inactive | inactive | inactive |  |  | inactive | inactive
CCCCCCCCOC(C)=O |  | inactive |  | inactive | inactive |  | inactive | inactive | inactive | inactive | inactive | inactive | inactive | inactive |  |  | inactive | inactive
CC(C)CCC(=O)O |  | inactive |  | inactive | inactive |  | inactive | inactive | inactive | inactive | inactive | inactive | inactive | inactive |  |  | inactive | inactive
COC(=O)c1ccccc1O |  | inactive |  | inactive | inactive |  | inactive | inactive | inactive | inactive | inactive | inactive | inactive | inactive |  |  | inactive | inactive
C=CCc1ccc(OC(C)=O)c(OC)c1 |  | inactive |  | inactive | inactive |  | inactive | inactive | active | inactive | inactive | inactive | active | active |  |  | active | inactive
CC(C)C(=O)O |  | inactive |  | inactive | inactive |  | inactive | inactive | inactive | inactive | inactive | inactive | inactive | inactive |  |  | inactive | inactive
O=CCc1ccccc1 |  | inactive |  | inactive | inactive |  | inactive | inactive | active | inactive | inactive | inactive | active | active |  |  | inactive | inactive

Some entries already given, limited to odorant receptor agonist call [10] and odorant receptor agonist call [6]:
SMILES | odorant receptor agonist call [10] | odorant receptor agonist call [6]
CC12C=CCC1C1CCC3CC(=O)CCC3(C)C1CC2 (centres undefined) | inactive | inactive
CCCCCCCCOC(C)=O | inactive | 
